Patent US12194201B2, “Silica nanoparticle doped conductive polymer” (University of Pittsburgh—Of the Commonwealth System of …, priority 2019, dated 2025)
At least one compound was matched to its structure with a doubt left.

Test: Electrically controlled dye loading and release from PEDOT/SNP films in PBS
Assay type: physicochemical
From the text: Drug loading and release from conducting polymers with electrical control offers a precise method for pharmacological delivery directly to the site of implantation on demand. Mesoporous SNP were employed for drug delivery due to their exceptionally high loading volume. Rhodamine and fluorescein were used as model drugs for quantifying drug release profile. Fluorescein has a negative charge while rhodamine-b is positively charged, and the combination of rhodamine and fluorescein allow for a better understanding of how oppositely charged compounds can be released from PEDOT/SNP films. The drug loading and release mechanism is depicted in FIG. 2. Nanoparticles were suspended in an aqueous solution of fluorescein, rhodamine, or a combination of both, and sonicated to encourage the entry of the dye into the pores. Loaded sulfonate nanoparticles are then collected from solution by centrifuge then resuspended in an aqueous solution of EDOT. PEDOT/SNP films are polymerized under constant current, producing a film of polymer gated silica nanoparticles. An immediate observation made was the ease of polymerization when the dye was loaded into SNPs prior to polymerization vs without SNPs, with electrode potential being substantially lower for electro-polymerization of drug loaded SNP (FIG. 11). After polymerization, electrodes coated with the dye-loaded composite were examined under a fluorescent microscope to observe the release in phosphate buffered saline (PBS) in real time (FIG. 12). A cyclic voltage sweep from 0.8V to −0.6V was used to trigger drug release from the coatings. We observed a halo of fluorescence surrounding the electrode upon stimulation, which dissipates within seconds of the end of stimulation.
We further quantified the amount of release over number of stimuli from PEDOT/SNP composite and compared the performance to a control group of PEDOT loaded with the dye directly without the mesoporous SNP. Control and SNP dopant groups were polymerized to the same charge density. […]

In the case of `O=C1OC2(c3ccc(O)cc3Oc3cc(O)ccc32)c2ccccc21` [fluorescein], the “quantified fluorescent intensity during release vs after” value (PBS, cyclic voltage sweep 0.8V to −0.6V, dye-loaded PEDOT/SNP) is reported as “significantly higher”, the “dye release relative to control sample” value (over 9,000 (fluorescein) and 5,000 (rhodamine) stimulations, control PEDOT loaded with dye without SNP) is reported as “substantial increase” and the “Overall drug loading increase when SNP used as a reservoir” value (vs PEDOT loaded with the dye directly, same charge density) is reported as 6.4 ×.
